# Test results as given in publication PMC7862700.
# Sequences of proteins named here, by UniProt entry; tags and fusion partners are left off. A change or cut given only in a name is not applied to a line headed by its entry.
# UniProt P41212: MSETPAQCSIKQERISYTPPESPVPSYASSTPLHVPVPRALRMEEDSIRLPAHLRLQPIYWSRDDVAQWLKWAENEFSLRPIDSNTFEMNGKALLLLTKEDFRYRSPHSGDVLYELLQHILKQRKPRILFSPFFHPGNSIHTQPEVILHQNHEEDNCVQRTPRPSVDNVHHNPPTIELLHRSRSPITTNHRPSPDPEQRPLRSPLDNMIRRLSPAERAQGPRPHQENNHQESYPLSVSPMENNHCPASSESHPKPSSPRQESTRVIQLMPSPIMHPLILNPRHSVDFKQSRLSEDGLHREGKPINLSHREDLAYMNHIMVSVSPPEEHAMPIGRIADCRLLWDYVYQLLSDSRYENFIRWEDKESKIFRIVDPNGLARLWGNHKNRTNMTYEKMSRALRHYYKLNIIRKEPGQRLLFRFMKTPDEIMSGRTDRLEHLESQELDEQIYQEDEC
# UniProt Q9Y603: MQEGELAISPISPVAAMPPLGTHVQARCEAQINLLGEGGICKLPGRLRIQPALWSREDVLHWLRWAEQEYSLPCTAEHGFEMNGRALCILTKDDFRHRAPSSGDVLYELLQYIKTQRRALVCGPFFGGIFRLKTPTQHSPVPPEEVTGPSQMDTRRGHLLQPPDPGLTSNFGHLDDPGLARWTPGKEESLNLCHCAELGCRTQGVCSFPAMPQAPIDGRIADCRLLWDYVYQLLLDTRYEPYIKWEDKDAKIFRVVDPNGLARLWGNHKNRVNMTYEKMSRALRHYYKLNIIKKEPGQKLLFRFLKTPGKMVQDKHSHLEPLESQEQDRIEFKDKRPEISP
# Only a part is listed here, and it is no random draw. At the low end of the ranking the order means little.
# Tests used:
# Test in all cases: DAPPL (digital affinity profiling via proximity ligation, sequencing)
# Conditions in all cases: 10 mM Tris-HCl pH 7.5, 50 mM NaCl, 1 mM DTT, 4% glycerol, room temperature, 30 min; GST-TFs on glutathione beads, 16-mer random dsDNA library, 0.1% …; high values mean tight binding; double strand, one strand shown; scale: fold enrichment (6-mer frequency, TF over GST control)
# ELF3 = target: T1, ELF3 (UniProt P78545)
# T1 sequence: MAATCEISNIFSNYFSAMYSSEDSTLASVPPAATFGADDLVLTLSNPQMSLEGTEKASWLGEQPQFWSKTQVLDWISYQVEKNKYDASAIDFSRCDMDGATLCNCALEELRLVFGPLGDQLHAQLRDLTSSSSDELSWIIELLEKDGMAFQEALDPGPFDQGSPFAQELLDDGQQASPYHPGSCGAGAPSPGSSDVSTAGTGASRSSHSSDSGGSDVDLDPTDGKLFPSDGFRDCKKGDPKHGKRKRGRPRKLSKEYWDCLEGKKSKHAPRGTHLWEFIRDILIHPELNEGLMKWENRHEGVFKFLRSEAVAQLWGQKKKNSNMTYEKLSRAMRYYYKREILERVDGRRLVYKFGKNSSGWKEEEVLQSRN
# ETV6 = ETV6 (UniProt P41212)
# ETV7 = ETV7 (UniProt Q9Y603)
Sequence,binding signal (ELF3),binding signal (ETV6),binding signal (ETV7)
CAACAA,1.2,1.01,–
CTCTAG,1.1,1.34,–
GCCGAC,1,1.08,–
CCTTTC,1.42,1.62,–
TAACGA,1.02,1.08,–
AAGCAC,0.995,1.28,–
CGTCTC,1.46,1.46,–
TACTAG,0.899,0.974,–
GTATTA,1.09,1.16,–
CATCCC,1.27,1.24,–
TGCTGA,1.09,1.01,–
TGATGG,1.32,1.21,–
TCCGGA,2.23,2.7,–
TGCACG,1.26,1.06,–
CAATCA,1.12,1.16,–
CCCACA,1.14,1.14,–
GTTTGG,0.939,0.966,–
GCTGAT,1.16,0.986,–
CGATGA,0.954,0.912,–
TATACT,1.3,1.45,–
CTGGAC,0.962,1.09,–

Sequence,binding signal (ELF3),binding signal (ETV6),binding signal (ETV7)
CGTCTA,1.29,1.26,–
GGTCCT,0.881,0.969,–
TTATCA,0.949,1,–
AAATGT,1.54,1.31,–
GATTTC,1.62,1.8,–
AATTCA,1.35,1.23,–
ACACAC,1.23,1.21,–
GATGGT,1.19,1.1,–
GTACTT,2.04,2.47,–
ATGACT,1.46,1.3,–
TATAAG,1.23,1.19,–
TATGGC,1.29,1.29,–
CATATA,1.07,1.12,–
ACTAAC,1.25,1.22,–
TTCACC,1.57,1.35,–
TTAGTA,1.15,1.12,–
CACTTC,3.05,4.24,–
AATTGC,1.5,1.43,–
CACTCG,0.932,1.1,–
CCCCAT,1.16,1.25,–
AACGAA,1.19,1.17,–

# As entered above:
# For binding signal (ELF3), AATTCA reads 1.35
# For binding signal (ETV6), CACTTC reads 4.24
# For binding signal (ELF3), ATGACT reads 1.46
# For binding signal (ELF3), CATATA reads 1.07
# For binding signal (ETV6), TTATCA reads 1
# For binding signal (ETV6), TATAAG reads 1.19

# Later entries:

Sequence,binding signal (ELF3),binding signal (ETV6),binding signal (ETV7)
GTGGCT,1.26,1.07,–
AAGTCC,1.3,1.2,–
GAACCT,–,–,1.19
AACAAT,–,–,1.24
ACAGAT,0.853,0.944,–
CTACTT,1.89,2.02,–
TACCTC,1.27,1.11,–
AACAGC,–,–,1.21
ACTTTA,1.23,1.18,–
TGGTCT,–,–,1.28
TGCAAA,–,–,1.09
TAGTCT,–,–,0.98
TTGAAT,–,–,1.09
GTGCTT,1.14,1.37,–
CCCTAA,–,–,1.14
ATCTCT,1.26,1.27,–
CCTGGG,1.06,1.1,–
TCTGTT,1.53,1.35,–
AAGAAA,1.23,1.22,–
CTTCCT,2.95,3.81,–
TATAGT,–,–,1.2

Sequence,binding signal (ELF3),binding signal (ETV6),binding signal (ETV7)
AAAGAA,1.29,1.3,–
TCCTAC,1.16,1.47,–
TCGACC,1.23,1.3,–
ATGAAT,1.08,1.15,–
TTGGTG,1.3,1.18,–
TATCTA,–,–,1.26
CACATT,1.43,1.15,–
CTCTTT,1.4,1.4,–
CTCTTG,1.22,1.2,–
ATGGGT,–,–,1.41
ACTCGC,–,–,1.09
TACTTC,3.4,4.67,–
AGAATT,–,–,1.13
CTCGAT,–,–,1.31
GCTTTG,–,1.24,1.44
ACTCTC,–,1.33,1.27
CTCTGC,–,–,1.27
GATTAT,–,1.12,1.18
TGAAAA,–,0.995,1.07
TGCTCA,–,1.28,1.54
